The format of the experiment is in vivo, rats. The conditions noted are these: morphine 4.0 mg/kg. The source says:
When rats are fixed with chronically indwelling bipolar electrodes for electrical stimulation of the medial forebrain bundle, they will press levers for brief durations of stimulation. The higher the intensity of stimulation, the greater the pressing. […] These relationships plus extant theory provide the rationale for using pressing for brain stimulation as a means of assessing the reinforcing effects of drugs and assessing which drugs might affect another drug's reinforcing effects.
The particulars of the procedures used herein are briefly summarized. Further information is in Reid (cited above) and Reid et al. (Life Sciences, 52, PL67-71 (1993)). Rats were fixed with chronically indwelling bipolar electrodes. Using standard stereotaxic methods, which includes full anesthesia, the tips of the electrode were aimed to stimulate the medial forebrain bundle as it traverses the lateral hypothalamus. With the skull held in a stereotaxic instrument so that a plane between bregma and lamba was perpendicular to the shaft of the electrode, the following stereotaxic coordinates were used: 3.5 mm posterior to brema, 1.6 mm lateral to the midline, and 8.6 mm below the surface of the skull.
The apparatus of these tests was a Skinner box (24×30 ×38 cm) equipped with a lever (2.5×2 cm). […]

Where two headings read alike, the source gives them in different places.

With `CN1CC[C@]23c4c5ccc(O)c4O[C@H]2[C@@H](O)C=C[C@H]3[C@H]1C5` [Morphine, reference compound], the “pressing for brain stimulation, morphine alone” value is “leads to a marked increase in pressing compared to pressing under the influence of placebo”. Moreover, under “listed as morphine”, the “pressing for brain stimulation, morphine alone” value is listed as “increased pressing for brain stimulation”.

The values above are taken from patent publication US5411965A, “Use of delta opioid receptor antagonists to treat cocaine abuse” (Arizona Board of Regents, priority 1993, dated 1995).
